These are yes or no findings as the source states them, for the method shown. In cells and extracts the contact can be indirect. Some entries that bind do so weakly or less than the wild type.
Legend:
[1] = target: p85 regulatory subunit of phosphoinositide 3-kinase (PI3K) (human) (UniProt P27986); test: co-immunoprecipitation with anti-p85 from cell lysates, western blot with anti-IRS-1 and anti-p85
[2] = target: p85 regulatory subunit of phosphoinositide 3-kinase (PI3K) (human) (UniProt P27986); test: co-immunoprecipitation with anti-p85 and Western blot

Sequences of proteins named here, by UniProt entry; tags and fusion partners are left off. Residues count along the entry.
UniProt P27986, residues 2-724: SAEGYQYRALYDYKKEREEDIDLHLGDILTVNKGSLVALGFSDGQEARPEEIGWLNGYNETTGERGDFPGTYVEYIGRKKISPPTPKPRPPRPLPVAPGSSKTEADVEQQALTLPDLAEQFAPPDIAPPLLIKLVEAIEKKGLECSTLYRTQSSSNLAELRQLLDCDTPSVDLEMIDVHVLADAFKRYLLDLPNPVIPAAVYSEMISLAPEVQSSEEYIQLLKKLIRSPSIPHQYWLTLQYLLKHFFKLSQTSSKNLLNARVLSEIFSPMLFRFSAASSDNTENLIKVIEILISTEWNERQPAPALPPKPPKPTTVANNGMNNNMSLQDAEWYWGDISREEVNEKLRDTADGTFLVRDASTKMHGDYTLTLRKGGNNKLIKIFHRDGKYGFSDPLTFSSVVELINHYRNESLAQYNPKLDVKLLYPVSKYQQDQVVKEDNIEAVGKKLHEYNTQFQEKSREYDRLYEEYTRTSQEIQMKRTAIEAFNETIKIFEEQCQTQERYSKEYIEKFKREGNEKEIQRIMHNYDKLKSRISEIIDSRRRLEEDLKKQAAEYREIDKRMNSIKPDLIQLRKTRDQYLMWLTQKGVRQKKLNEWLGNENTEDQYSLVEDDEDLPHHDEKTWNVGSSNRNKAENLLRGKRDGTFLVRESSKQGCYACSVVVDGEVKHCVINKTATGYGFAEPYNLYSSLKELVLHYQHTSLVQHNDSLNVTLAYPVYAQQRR
UniProt P35568: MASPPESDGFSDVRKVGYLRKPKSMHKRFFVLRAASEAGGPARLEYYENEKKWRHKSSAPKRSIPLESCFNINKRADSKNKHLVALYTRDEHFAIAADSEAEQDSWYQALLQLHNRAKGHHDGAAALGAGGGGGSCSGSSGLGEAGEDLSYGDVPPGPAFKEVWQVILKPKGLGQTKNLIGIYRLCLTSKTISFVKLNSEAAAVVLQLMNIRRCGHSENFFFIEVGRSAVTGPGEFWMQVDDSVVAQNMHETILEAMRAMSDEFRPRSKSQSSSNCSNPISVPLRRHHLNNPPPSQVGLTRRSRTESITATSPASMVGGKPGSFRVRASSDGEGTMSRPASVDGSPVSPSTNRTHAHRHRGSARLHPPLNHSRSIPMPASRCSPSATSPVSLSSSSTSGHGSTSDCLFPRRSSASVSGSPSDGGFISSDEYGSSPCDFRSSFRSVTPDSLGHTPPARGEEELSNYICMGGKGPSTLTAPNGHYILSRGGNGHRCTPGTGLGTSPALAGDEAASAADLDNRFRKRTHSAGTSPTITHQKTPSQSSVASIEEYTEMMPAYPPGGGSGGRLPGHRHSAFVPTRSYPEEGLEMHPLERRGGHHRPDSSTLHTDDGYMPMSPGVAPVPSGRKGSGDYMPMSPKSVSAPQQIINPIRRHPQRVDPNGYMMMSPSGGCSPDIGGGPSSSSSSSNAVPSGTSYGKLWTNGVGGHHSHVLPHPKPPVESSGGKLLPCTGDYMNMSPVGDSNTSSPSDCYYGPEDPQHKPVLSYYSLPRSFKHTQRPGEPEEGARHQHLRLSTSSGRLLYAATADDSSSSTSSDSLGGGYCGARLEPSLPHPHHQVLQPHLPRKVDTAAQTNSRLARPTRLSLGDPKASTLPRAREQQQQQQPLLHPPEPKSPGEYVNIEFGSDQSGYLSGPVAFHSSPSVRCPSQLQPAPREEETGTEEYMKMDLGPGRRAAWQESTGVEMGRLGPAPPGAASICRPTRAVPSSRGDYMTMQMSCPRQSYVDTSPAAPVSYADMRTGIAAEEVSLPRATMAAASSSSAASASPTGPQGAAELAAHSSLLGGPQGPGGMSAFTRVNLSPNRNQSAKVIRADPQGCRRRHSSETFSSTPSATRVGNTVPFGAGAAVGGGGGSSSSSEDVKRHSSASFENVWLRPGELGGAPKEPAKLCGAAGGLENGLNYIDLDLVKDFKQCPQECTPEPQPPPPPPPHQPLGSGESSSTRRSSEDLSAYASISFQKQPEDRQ

Question: Which results are given for “insulin receptor substrate (IRS-1) (from UniProt P35568 1-1242)”?
Answer: binding [1]: binds; binding [2]: binds
